Reference: patent US20250277012A1 (Protagonist Therapeutics, Inc., priority 2021, published 2025)
Read-outs that look alike come from different tables or passages of the source. At least one structure is not confirmed: it was looked up by name or label, or the drawing left a doubt. Starred links: 1 amine or outer side, 2 acyl side, 3 side chain; linkers in the order of their positions; H or OH if unused. Positions of bridges follow the written chain, without caps; N, C: chain ends. Non-standard residues stand in square brackets, D forms with d. Residues, ends and D or L forms follow the SMILES beside them. Groups on a side chain read outwards from the residue. *: point of attachment. CH3O(CH2CH2O)11CH2CH2CO = COCCOCCOCCOCCOCCOCCOCCOCCOCCOCCOCCOCCC(=O)*; Trp(5-OH) = N[C@@H](Cc1c[nH]c2ccc(O)cc12)C(=O)O; Bip = N[C@@H](Cc1ccc(-c2ccccc2)cc1)C(=O)O; C18 diacid = O=C(O)CCCCCCCCCCCCCCCCC(=O)*; Dip = N[C@H](C(=O)O)C(c1ccccc1)c1ccccc1; γGlu = O=C(O)[C@H](CCC(=O)[*:2])N[*:1]; His(τ-Me) = Cn1cnc(C[C@H](N)C(=O)O)c1; X12 = O=C([C@H]1CCCN([*:1])C1)[*:2]; Palmitoyl = CCCCCCCCCCCCCCCC(=O)*; NMeF = CN[C@@H](Cc1ccccc1)C(=O)O; β3hF = N[C@H](CC(=O)O)Cc1ccccc1; Aad = N[C@@H](CCCC(=O)O)C(=O)O; NMeK = CN[C@@H](CCCCN)C(=O)O; Pen = CC(C)(S)[C@H](N)C(=O)O; dNMeK = CN[C@H](CCCCN)C(=O)O; Isovaleryl = CC(C)CC(=O)*; NMeC = CN[C@@H](CS)C(=O)O; Dap = NC[C@H](N)C(=O)O; AEEA = NCCOCCOCC(=O)O; Ahx = NCCCCCC(=O)O

Experiments:
ferroportin [1] = target: T1, ferroportin (Homo sapiens, UniProt Q9NP59); experiment: FPN activity assay: ferroportin-GFP internalization/degradation in HEK293 cells; type: cell-based; design: expressed in transfected cells; details: read-out: FPN IC50
T1 sequence (Q9NP59 1-571): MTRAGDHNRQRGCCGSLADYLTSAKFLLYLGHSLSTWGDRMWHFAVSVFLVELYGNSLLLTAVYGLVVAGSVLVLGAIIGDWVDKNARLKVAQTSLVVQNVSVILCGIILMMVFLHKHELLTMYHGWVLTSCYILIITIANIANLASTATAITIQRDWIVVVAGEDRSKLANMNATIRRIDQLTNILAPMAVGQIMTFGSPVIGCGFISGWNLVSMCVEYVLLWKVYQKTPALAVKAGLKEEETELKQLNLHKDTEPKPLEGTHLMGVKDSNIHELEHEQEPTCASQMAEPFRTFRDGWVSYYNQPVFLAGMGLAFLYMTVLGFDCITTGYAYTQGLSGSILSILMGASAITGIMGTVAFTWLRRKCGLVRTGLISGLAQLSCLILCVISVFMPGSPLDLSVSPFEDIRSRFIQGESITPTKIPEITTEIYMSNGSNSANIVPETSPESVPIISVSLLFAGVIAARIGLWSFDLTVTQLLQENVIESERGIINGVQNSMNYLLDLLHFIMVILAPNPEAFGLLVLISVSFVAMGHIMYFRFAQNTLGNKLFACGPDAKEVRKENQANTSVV
Protocol: Following internalization, the ferroporin protein is degraded.
A retro inverse peptide is a peptide with a reversed sequence in all D amino acids. An example is that Hy-Glu-Thr-His-NH2 becomes Hy-DHis-DThr-DGlu-NH2. The EC50 of these reference compounds for ferroportin internalization/degradation was determined according to the FPN activity assay described above. These peptides served as control standards.

ferroportin [2] = target: T1, ferroportin; experiment: T47D cell-based ferroportin internalization assay in presence of mouse serum albumin (MSA); design: a human breast carcinoma adherent cell line which endogenously expresses ferroportin; host or cells: T47D
Protocol: The potency of the peptides in causing ferroportin internalization was evaluated in a T47D cell-based assay. […] In this internalization assay, the potency of the test peptides was evaluated in presence of serum albumin which is the main protein component in the blood. T47D cells were maintained in RPMI media (containing required amount of fetal bovine serum) and regularly sub-cultured. In preparation for the assay, the cells were seeded in 96-well plates at a density of 80-100 k cells per well in 100 ul volume and allowed to rest overnight. […] Sigma, A3139). The test peptide dilution series were allowed to incubate at room temperature for 30 min. Then the media was aspirated from the 96-well cell plate and test peptide dilution series were added. […] The AF647-conjugated detection peptide was previously verified to bind to ferroportin and cause its internalization. The cells were washed again after a 2 hr incubation in preparation for flow cytometry analysis. The Median Fluorescence Intensity (MFI) of the AF647-positive population was measured (after removing dead cells and non-singlets from the analysis). The MFI values were used to generate a dose-response curve and obtain IC50 potencies for the test peptides.

[3] = ferroportin-GFP HEK293 cells, at least 18 hours
[4] = Table 6E, ferroportin-GFP internalization/degradation, at least 18 hours incubation
[5] = Table 6E, T47D internalization assay with MSA
[6] = ferroportin-GFP internalization/degradation, HEK293 cells, Table 6E
[7] = T47D internalization assay in presence of mouse serum albumin (MSA), Table 6E

Molecule CC[C@H](C)[C@@H]1NC(=O)[C@@H](NC(=O)[C@@H]2CCCN2C(=O)[C@H](Cc2ccccc2)NC(=O)[C@H](Cc2c[nH]cn2)NC(=O)[C@@H](NC(=O)[C@H](CCC(=O)O)NC(=O)CC(C)C)[C@@H](C)O)C(C)(C)SSC[C@@H](C(=O)N[C@@H](CCCCN)C(N)=O)NC(=O)CNC(=O)[C@H](CCCCN)NC(=O)[C@H](CO)NC(=O)[C@H](CCCNC(=N)N)NC(=O)[C@@H]2CCCN2C(=O)[C@H](CCC(=O)O)NC(=O)[C@H](Cc2ccccc2)NC(=O)[C@H](CCCCNC(=O)COCCOCCNC(=O)COCCOCCNC(=O)CC[C@H](NC(=O)CCCCCCCCCCCCCCCCC(=O)O)C(=O)O)NC1=O [Compd 19] (Isovaleryl-ETHFP[Pen]IK([AEEA-AEEA-γGlu-C18 diacid])FEPRSKGCK-NH2; disulfide 6-16) has a DC50 (ferroportin [1]; [3]) of over 500 nM.

Work on CCCCCCCCCCCCCCCC(=O)NCCCCCC(=O)NCCCC[C@H](NC(=O)[C@@H]1CSSC[C@H](NC(=O)[C@@H]2CCCN2C(=O)[C@@H](NC(=O)[C@H](Cc2c[nH]cn2)NC(=O)[C@@H](NC(=O)[C@H](CCC(=O)O)NC(=O)CC(C)C)[C@@H](C)O)C(c2ccccc2)c2ccccc2)C(=O)N1C)C(=O)N[C@H](CC(=O)N[C@H](CCCCN)C(N)=O)Cc1ccccc1 [Compd 44] (Isovaleryl-ETH[Dip]PC[NMeC]K([Ahx-Palmitoyl])[β3hF][dK]-NH2; disulfide 6-7) yielded a DC50 (ferroportin [1]; [3]) of 1 to 10 nM and an IC50 (ferroportin [2]; T47D cells, 0.5% mouse serum albumin, 1 hr incubation) of 1 to 10 nM.

COCCOCCOCCOCCOCCOCCOCCOCCOCCOCCOCCOCCC(=O)NCCCC[C@@H](NC(=O)[C@@H](NC(=O)[C@H](CCCCNC(=O)COCCOCCNC(=O)COCCOCCNC(=O)[C@H](CN)NC(=O)CCCCCCCCCCCCCCCCC(=O)O)N(C)C(=O)[C@@H]1CSSC[C@H](NC(=O)[C@@H]2CCCN2C(=O)[C@@H](NC(=O)[C@H](Cc2c[nH]cn2)NC(=O)[C@@H](NC(=O)[C@H](CCC(=O)OC)NC(=O)CC(C)C)[C@@H](C)O)C(c2ccccc2)c2ccccc2)C(=O)N1)C(c1ccccc1)c1ccccc1)C(N)=O [compound 214] (Isovaleryl-E(OMe)TH[Dip]PCC[NMeK]([AEEA-AEEA-Dap-C18 diacid])[Dip][dK](CH3O(CH2CH2O)11CH2CH2CO)-NH2; disulfide 6-7) showed a DC50 (ferroportin [1]; [4]) of 10 to 100 nM and an IC50 (ferroportin [2]; [5]) of 10 to 100 nM.

With COCCOCCOCCOCCOCCOCCOCCOCCOCCOCCOCCOCCC(=O)NCCCC[C@@H](NC(=O)[C@H](Cc1ccc(-c2ccccc2)cc1)NC(=O)[C@H](CCCCNC(=O)COCCOCCNC(=O)COCCOCCNC(=O)[C@H](CN)NC(=O)CCCCCCCCCCCCCCCCC(=O)O)N(C)C(=O)[C@@H]1CSSC[C@H](NC(=O)[C@@H]2CCCN2C(=O)[C@@H](NC(=O)[C@H](Cc2c[nH]cn2)NC(=O)[C@@H](NC(=O)[C@H](CCC(=O)OC)NC(=O)CC(C)C)[C@@H](C)O)C(c2ccccc2)c2ccccc2)C(=O)N1)C(N)=O [compound 215] (Isovaleryl-E(OMe)TH[Dip]PCC[NMeK]([AEEA-AEEA-Dap-C18 diacid])[Bip][dK](CH3O(CH2CH2O)11CH2CH2CO)-NH2; disulfide 6-7) the DC50 (ferroportin [1]; [4]) was 1 to 10 nM and the IC50 (ferroportin [2]; [5]) was 10 to 100 nM.

COC(=O)CC[C@H](NC(=O)CC(C)C)C(=O)N[C@H](C(=O)N[C@@H](Cc1c[nH]cn1)C(=O)N[C@H](C(=O)N1CCC[C@H]1C(=O)N[C@H]1CSSC[C@@H](C(=O)N(C)[C@@H](CCCCNC(=O)COCCOCCNC(=O)COCCOCCNC(=O)[C@H](CN)NC(=O)CCCCCCCCCCCCCCCCC(=O)O)C(=O)N[C@@H](Cc2ccc(-c3ccccc3)cc2)C(=O)N[C@H](CCCCN)C(N)=O)NC1=O)C(c1ccccc1)c1ccccc1)[C@@H](C)O [compound 216] (Isovaleryl-E(OMe)TH[Dip]PCC[NMeK]([AEEA-AEEA-Dap-C18 diacid])[Bip][dK]-NH2; disulfide 6-7) showed a DC50 (ferroportin [1]; [4]) of 1 to 10 nM and an IC50 (ferroportin [2]; [5]) of 1 to 10 nM.

CC(C)CC(=O)N[C@@H](CCC(=O)O)C(=O)N[C@H](C(=O)N[C@@H](Cc1c[nH]cn1)C(=O)N[C@H](C(=O)N1CCC[C@H]1C(=O)N[C@H]1CSSC[C@@H](C(=O)N(C)[C@@H](CCCCNC(=O)COCCOCCNC(=O)COCCOCCNC(=O)[C@H](CN)NC(=O)CCCCCCCCCCCCCCCCC(=O)O)C(=O)N(C)[C@@H](Cc2ccccc2)C(=O)N(C)[C@H](CCCCN)C(N)=O)NC1=O)C(c1ccccc1)c1ccccc1)[C@@H](C)O [compound 225] (Isovaleryl-ETH[Dip]PCC[NMeK]([AEEA-AEEA-Dap-C18 diacid])[NMeF][dNMeK]-NH2; disulfide 6-7) was tested, and the DC50 (ferroportin [1]; [4]) was 10 to 100 nM and the IC50 (ferroportin [2]; [5]) was 10 to 100 nM.

COC(=O)CC[C@H](NC(=O)CC(C)C)C(=O)N[C@H](C(=O)N[C@@H](Cc1c[nH]cn1)C(=O)N[C@H](C(=O)N1CCC[C@H]1C(=O)N[C@H]1CSSC[C@@H](C(=O)N(C)[C@@H](CCCCNC(=O)COCCOCCNC(=O)COCCOCCNC(=O)[C@H](CN)NC(=O)CCCCCCCCCCCCCCCCC(=O)O)C(=O)N[C@H](C(=O)N[C@H](CCCCN)C(N)=O)C(c2ccccc2)c2ccccc2)NC1=O)C(c1ccccc1)c1ccccc1)[C@@H](C)O [compound 233] (Isovaleryl-E(OMe)TH[Dip]PCC[NMeK]([AEEA-AEEA-Dap-C18 diacid])[Dip][dK]-NH2; disulfide 6-7) showed a DC50 (ferroportin [1]; [6]) of 10 to 100 nM and an IC50 (ferroportin [2]; [7]) of 10 to 100 nM.

With CC(C)CC(=O)N[C@@H](CCCC(=O)O)C(=O)N[C@H](C(=O)N[C@@H](Cc1c[nH]cn1)C(=O)N[C@H](C(=O)N1CCC[C@H](C(=O)N[C@H]2CSSC[C@@H](C(=O)N(C)[C@@H](CCCCNC(=O)COCCOCCNC(=O)COCCOCCNC(=O)[C@H](CN)NC(=O)CCCCCCCCCCCCCCCCC(=O)O)C(=O)N[C@H](CC(=O)N[C@H](CCCCN)C(N)=O)Cc3ccccc3)NC2=O)C1)C(c1ccccc1)c1ccccc1)[C@@H](C)O [compound 245] (Isovaleryl-[Aad]TH[Dip][X12]CC[NMeK]([AEEA-AEEA-Dap-C18 diacid])[β3hF][dK]-NH2; disulfide 6-7) the IC50 (ferroportin [2]; [7]) was 10 to 100 nM.

Work on CC(C)CC(=O)N[C@@H](CCC(=O)O)C(=O)N[C@H](C(=O)N[C@@H](Cc1cn(C)cn1)C(=O)N[C@H](C(=O)N1CCC[C@H]1C(=O)N[C@H]1CSSC[C@@H](C(=O)N(C)[C@@H](CCCCNC(=O)COCCOCCNC(=O)COCCOCCNC(=O)[C@H](CN)NC(=O)CCCCCCCCCCCCCCCCC(=O)O)C(=O)N(C)[C@@H](Cc2ccccc2)C(=O)N[C@H](CCCCN)C(N)=O)NC1=O)C(c1ccccc1)c1ccccc1)[C@@H](C)O [compound 279] (Isovaleryl-ET[His(τ-Me)][Dip]PCC[NMeK]([AEEA-AEEA-Dap-C18 diacid])[NMeF][dK]-NH2; disulfide 6-7) yielded a DC50 (ferroportin [1]; [6]) of 10 to 100 nM.

For CC(C)CC(=O)N[C@@H](CCC(=O)O)C(=O)N[C@H](C(=O)N[C@@H](Cc1cn(C)cn1)C(=O)N[C@H](C(=O)N1CCC[C@H](C(=O)N[C@H]2CSSC[C@@H](C(=O)N(C)[C@@H](CCCCNC(=O)COCCOCCNC(=O)COCCOCCNC(=O)[C@H](CN)NC(=O)CCCCCCCCCCCCCCCCC(=O)O)C(=O)N[C@H](CC(=O)N[C@H](CCCCN)C(N)=O)Cc3ccccc3)NC2=O)C1)C(c1ccccc1)c1ccccc1)[C@@H](C)O [compound 280] (Isovaleryl-ET[His(τ-Me)][Dip][X12]CC[NMeK]([AEEA-AEEA-Dap-C18 diacid])[β3hF][dK]-NH2; disulfide 6-7), the DC50 (ferroportin [1]; [6]) was over 500 nM.

Work on CC(C)CC(=O)N[C@@H](CCC(=O)O)C(=O)N[C@H](C(=O)N[C@@H](Cc1c[nH]c2ccc(O)cc12)C(=O)N[C@H](C(=O)N1CCC[C@H]1C(=O)N[C@H]1CSSC[C@@H](C(=O)N(C)[C@@H](CCCCNC(=O)COCCOCCNC(=O)COCCOCCNC(=O)[C@H](CN)NC(=O)CCCCCCCCCCCCCCCCC(=O)O)C(=O)N[C@H](CC(=O)N[C@H](CCCCN)C(N)=O)Cc2ccccc2)NC1=O)C(c1ccccc1)c1ccccc1)[C@@H](C)O [compound 284] (Isovaleryl-ET[Trp(5-OH)][Dip]PCC[NMeK]([AEEA-AEEA-Dap-C18 diacid])[β3hF][dK]-NH2; disulfide 6-7) yielded a DC50 (ferroportin [1]; [6]) of over 500 nM.
